From patent US20120128626A1 (ALDERBIO, published 2012)
Results are given in words; binding and its absence hold for the method and conditions named.

Biological target: T1, Dog IL-6 (dog) (UniProt P41323)
T1 sequence (looked up): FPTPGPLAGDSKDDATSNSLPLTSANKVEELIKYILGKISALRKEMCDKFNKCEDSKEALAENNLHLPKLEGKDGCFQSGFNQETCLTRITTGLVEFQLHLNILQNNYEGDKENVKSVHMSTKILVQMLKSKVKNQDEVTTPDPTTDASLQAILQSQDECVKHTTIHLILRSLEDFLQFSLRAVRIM
Assay: condition: Below Limit of Quantitation (value not given); surface plasmon resonance, 25 C

B1: Ab1 (antibody, human IgG1, kappa, N297A, V domains shown)
VH: EVQLVESGGGLVQPGGSLRLSCAASGFSLSNYYVTWVRQAPGKGLEWVGIIYGSDETAYATSAIGRFTISRDNSKNTLYLQMNSLRAEDTAVYYCARDDSSDWDAKFNLWGQGTLVTVSS
VL: AIQMTQSPSSLSASVGDRVTITCQASQSINNELSWYQQKPGKAPKLLIYRASTLASGVPSRFSGSGSGTDFTLTISSLQPDDFATYYCQQGYSLRNIDNAFGGGTKVEIKR
Q: For B1, which binding is on record?
A: no binding
